Measured values published in PubChem BioAssay AID540303 (National Center for Advancing Translational Sciences (NCATS), 2011).
Hit rate of the full screen: of about 330,000 compounds, about 1,000 (0.3%) were called active. Inconclusive results, whose numbers are uncertain, are shown with a selection of clear calls. The call rests on the fitted dose curve; in most records, active means well fitted inhibition curve with a large enough effect; inconclusive means small, poorly fitted or top-dose-only effect; inactive means no such curve, though single readings can be large or run the other way; tested in mouse RAW 264.7 cells. A potency beside an inconclusive call is a rough fit, not a confirmed value.

Test: qHTS for Inhibitors of Cell Surface uPA Generation; further: nearly all actives have a fitted effect of over 55% in size
Conditions: cell surface uPA generation assay; series mostly up to 38.3 µM
Summary of the method: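 Murine RAW 264.7 cells are treated for 24 h with compound up to 38.3 uM final. Cell ATP, measured by ATP-Lite, remains high if blocking the uPA cascade prevents LF from reaching the cytoplasm.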
Potency means the concentration at half of the fitted maximal effect.

SMILES | Potency
Cn1cc(C(=O)N/N=C/c2ccc3c(c2)OCO3)c2ccccc21 | inactive
Cc1cc(N=Nc2ccccc2)c(NCC(O)C(O)C(O)CO)cc1C (stereo not drawn) | inconclusive: 2.51 µM [inhibitor, partial curve, poor fit]
CCOc1ccc(CCNC(=O)COC(=O)c2ccc(C)c([N+](=O)[O-])c2)cc1OCC | inconclusive: 28.2 µM [inhibitor, partial curve, poor fit]
COc1cccc2sc(NNC(=O)c3nc4ccccc4s3)nc12 | inconclusive: 11.2 µM [inhibitor, partial curve, poor fit]
COc1ccc(N2CCN(C(=O)c3ccc(CNS(=O)(=O)c4cc(C)ccc4C)cc3)CC2)cc1 | inconclusive: 10 µM [inhibitor, partial curve, poor fit]
CCCCN1C(=O)c2ccc(C(=O)OCC(=O)NCCc3ccc(S(N)(=O)=O)cc3)cc2C1=O | inactive
COc1c(OC)c(O)c2c(=O)cc(-c3c(O)cccc3O)oc2c1OC | active: 7.08 µM
CC(=O)Nc1ccc(S(=O)(=O)NNC(=S)NCc2ccco2)cc1 | inconclusive: 12.6 µM [inhibitor, single point]
CC(C)C(=O)NCCc1nc(-c2ccccc2)no1 | inconclusive: 12.6 µM [inhibitor, partial curve, poor fit]
COC(=O)C1=C(C(=O)OC)[C@@H]2N(C)c3ccc(OC)cc3[C@@]23C[C@@H](C(=O)OC)N(C(=O)c2ccc(Br)cc2)C3=N1 | inconclusive: 10 µM [inhibitor, single point]
COCCNC(=O)c1ccc2c(c1)ncn2-c1cccc(C)c1 | inconclusive: 10 µM [inhibitor, partial curve, poor fit]
COc1cc2c(cc1OC)/C(=C/C(=O)c1ccc(OC)c([N+](=O)[O-])c1)NCC2 | inactive
Cc1cccc(COCC(Cc2ccccc2)N2CCN(C(=O)c3ccc(Cl)c(Cl)c3)CCC2=O)c1 (stereo not drawn) | inconclusive: 28.2 µM [inhibitor, single point]
COc1ccc(CC(=O)OCC(=O)N2CCc3ccccc32)cc1OC | inactive
CCC(C)Sc1cccc(-c2nc3ccccn3c2NCc2ccccc2)c1 (stereo not drawn) | inconclusive: 10 µM [inhibitor, single point]
Cc1noc(/C=C/N(C)C)c1S(=O)(=O)N1CCc2ccccc21 | inconclusive: 10 µM [inhibitor, partial curve, poor fit]
CC(C)(C)C(=O)NNC(=O)C1CC1(c1ccccc1)c1ccccc1 (stereo not drawn) | inactive
CC(=O)N1CCC(C(=O)Nc2ccc(S(=O)(=O)NCCc3ccccc3)cc2)CC1 | inactive
CCOc1cc(/C=C/C(=O)Nc2ccc(C(=O)NCCN(CC)CC)cc2)ccc1OCC(C)C | inactive
CCc1ccc(NC(=O)COC(=O)C2(c3ccc(Cl)cc3)CCCC2)cc1 | inconclusive: 12.6 µM [inhibitor, single point]
O=[N+]([O-])c1cc(N=Nc2ccc3ccccc3c2)ccc1O | inconclusive: 12.6 µM [inhibitor, single point]
CC(=O)Nc1ccccc1NC(=O)C/C(C)=N/NC(=O)c1ccccn1 | inconclusive: 4.47 µM [inhibitor, partial curve, poor fit]
CC(C)[C@H](CO)N(Cc1cccc(F)c1)c1nc(Nc2cccc(Cl)c2)c2ncn(C(C)C)c2n1 | inconclusive: 12.6 µM [inhibitor, single point]

Already shown: 2 of the compounds above.
SMILES | Potency
CC(=O)Nc1ccc(S(=O)(=O)NNC(=S)NCc2ccco2)cc1 | inconclusive: 12.6 µM [inhibitor, single point]
CC(C)C(=O)NCCc1nc(-c2ccccc2)no1 | inconclusive: 12.6 µM [inhibitor, partial curve, poor fit]

(list continues)

SMILES | Potency
CCOC1=C(C#N)CC2(CC1)c1ccccc1-c1ccccc12 | inactive
CC(=O)Nc1nc(C)c(-c2csc(Nc3cccc(C(C)=O)c3)n2)s1 | active: 11.2 µM
Cc1nonc1NC(=O)CSc1nc(C23CC4CC(CC(C4)C2)C3)nc2ccccc12 | inconclusive: 11.2 µM [inhibitor, partial curve]
CCc1ccc(Nc2ccc3nonc3c2[N+](=O)[O-])cc1 | inactive
Oc1ccc(-c2csc(Nc3ccccn3)n2)cc1O | active: 3.98 µM
O=C(CSc1nnc(CNc2ccccc2)o1)c1ccc2c(c1)OCCO2 | inactive
Cc1cccc(-c2nnc(NC(=O)c3cccs3)s2)c1 | inactive
Cc1ccccc1N=C/C=C1\N(C)c2ccccc2C1(C)C | inactive
CCCOc1ccc(-c2csc3ncn(Cc4ccc(C(=O)O)cc4)c(=O)c23)cc1 | inactive
Cc1ccsc1C(=O)OCC(=O)c1cc(C)n(C)c1C | inconclusive: 5.62 µM [inhibitor, partial curve]
COc1ccc2nc(NC(=O)c3c(C)noc3C)sc2c1 | inconclusive: 2.51 µM [inhibitor, full curve, poor fit]
Cc1cccc(N2CCN(C(=O)CCC(=O)N3CCOc4ccc(Cl)cc43)CC2C)c1 (stereo not drawn) | inconclusive: 2.82 µM [inhibitor, partial curve, poor fit]
COc1ccc(S(=O)(=O)N2CCN(C(=O)NCc3ccc(C)cc3)CC2)cc1 | inactive
O=C(CC(=O)c1ccncc1)c1ccccc1 | inactive
O=C(CCS(=O)(=O)c1ccccc1)N(CCCN1CCOCC1)c1nc2ccc(F)cc2s1 | inconclusive: 12.6 µM [inhibitor, partial curve, poor fit]
CN(CC(=O)NCCN1CCOCC1)S(=O)(=O)c1ccc(Cl)cc1 | inconclusive: 12.6 µM [inhibitor, single point]
NC(=O)C1CCN(Cc2nc3cc(C(F)(F)F)ccc3c(=O)[nH]2)CC1 | inconclusive: 2.82 µM [inhibitor, single point]
CCN(CC)C(=O)CN(C#N)c1nc(Cl)nc(N(C)C)n1 | inconclusive: 11.2 µM [inhibitor, single point]
CCN1CCN(c2cc(C)nc(-c3ccccc3O)n2)CC1 | inconclusive: 3.16 µM [inhibitor, partial curve, poor fit]
COc1ccc(CC2S/C(=N/N=C/c3ccc(O)cc3)NC2=O)cc1 (stereo not drawn) | inactive
Cc1cc(F)ccc1S(=O)(=O)Nc1ccc(C(=O)N2CCCCC2)cc1 | inactive
COc1ccc(/C=N/Nc2ccc([N+](=O)[O-])cc2)cc1O | inactive
CCSc1nnc(NC(=O)CSc2sc3c(O)cc(=O)[nH]c3c2C#N)s1 | inactive

In the list so far, these contain an aryl thioether with sulfur outside any ring:
SMILES | Potency
CCC(C)Sc1cccc(-c2nc3ccccn3c2NCc2ccccc2)c1 (stereo not drawn) | inconclusive: 10 µM [inhibitor, single point]
Cc1nonc1NC(=O)CSc1nc(C23CC4CC(CC(C4)C2)C3)nc2ccccc12 | inconclusive: 11.2 µM [inhibitor, partial curve]
O=C(CSc1nnc(CNc2ccccc2)o1)c1ccc2c(c1)OCCO2 | inactive
CCSc1nnc(NC(=O)CSc2sc3c(O)cc(=O)[nH]c3c2C#N)s1 | inactive

Additional results

SMILES | Potency
Cc1ccc(NC(=O)CN(C)C(=O)COc2cccc3cccnc23)cc1 | inactive
CCCN(CC(=O)Nc1ccccc1OC)CC(=O)c1c(N)n(Cc2ccccc2)c(=O)n(C)c1=O | inconclusive: 0.316 µM [inhibitor, full curve, poor fit]
CS(=O)(=O)N1CCN(c2ccc(NC(=O)c3ccccc3)cc2)CC1 | inactive
Cn1nnnc1Sc1ncnc2scc(-c3cccc4ccccc34)c12 | inconclusive: 3.98 µM [inhibitor, partial curve, poor fit]
C[C@H](O)[C@@H]1C(=O)N2CCc3ccc(-c4ccccc4)cc3[C@@H]2C[C@@H]1N(C)C(=O)Nc1cc(Cl)cc(Cl)c1 | inconclusive: 28.2 µM [inhibitor, single point]
O=C(O)CNc1nc(-c2ccccc2)nc2c1oc1ccccc12 | inactive
O=C(CNC(=O)c1ccccc1)N/N=C/c1ccc([N+](=O)[O-])o1 | inconclusive: 28.2 µM [inhibitor, single point]
COc1ccc2c(c1OC)C(=O)N(c1cccc(/C=C/C(=O)O)c1)C2 | inconclusive: 3.55 µM [inhibitor, partial curve]
Cc1ccc(Nc2cc(C(=O)NCCCN3CCOCC3)c3ccccc3n2)cc1C | inconclusive: 4.47 µM [inhibitor, partial curve]
CCC(=O)N1CCc2cc(S(=O)(=O)CCC(=O)NCc3ccccc3OC)ccc21 | inactive
CSc1nsc2nc(=O)c(/C=C3\C(C)=Nc4ccc(C)cc43)c(N)n12 | inactive
CCN(CC)c1ccc(/C=N/NC(=O)c2cccc(S(=O)(=O)Nc3ccccc3OC)c2)cc1 | inconclusive: 35.5 µM [inhibitor, partial curve, poor fit]
COc1ccc(NC(=O)CCCN2C(=O)C3CC=CCC3C2=O)cc1 (stereo not drawn) | inconclusive: 10 µM [inhibitor, single point]
COC(=O)[C@@]1(Cc2ccc(OC)cc2)[C@H]2c3cc(C(=O)N(C)C)n(Cc4ccc(OC(F)(F)F)cc4)c3C[C@H]2CN1C(=O)c1ccccc1 | inconclusive: 22.4 µM [inhibitor, single point]
CCOc1ccc(C2NC(=O)C(C#N)=C(S)N2c2ccc(C)cc2)cc1OC (stereo not drawn) | inactive
CCOC(=O)N1C2=NC(C(=O)OC)=C(C(=O)OC)[C@@H]3N(Cc4ccccc4)c4ccccc4[C@]23C[C@H]1C(=O)OC | inconclusive: 7.08 µM [inhibitor, partial curve]
CCNc1nc(NCC)nc(N(C)N)n1 | inactive
COc1ccc(-n2c(COc3ccc(Cl)cc3)nnc2SCc2ccc(C#N)cc2)cc1 | inconclusive: 11.2 µM [inhibitor, partial curve, poor fit]
CCOc1cc(/C=N\NC(=O)C2C(=O)NCC2c2ccccc2)ccc1OC (stereo not drawn) | inconclusive: 5.01 µM [inhibitor, partial curve, poor fit]
CCOC(=O)N1CCC(NC(=O)c2ccc3c(c2)N=C(C)c2c(C)ccc(C)c2S3)CC1 | inconclusive: 0.199 µM [inhibitor, full curve, poor fit]
COC(=O)[C@@]1(Cc2ccccc2)[C@H]2C(=O)N(Cc3ccccc3)C(=O)[C@H]2[C@H]2CN=C(SCC3CC3)N21 | inconclusive: 22.4 µM [inhibitor, partial curve, poor fit]
CCCCNS(=O)(=O)c1ccc2nc(-c3cccnc3)cc(C(=O)NCC(OC)OC)c2c1 | inconclusive: 1 µM [inhibitor, partial curve, poor fit]
